Source: PubChem BioAssay AID2549 (National Center for Advancing Translational Sciences (NCATS), 2010)
Several values for one entry are separate records, joined by “and”; a condition that tells them apart may be missing. Identical values can stand only once. Hit rate of the full screen: of about 240,000 compounds, about 1,300 (0.54%) were called active. Inconclusive means that the source gave no clear call. Such entries were picked first, then a sample of the others. Calls follow the shape of the dose curve; as a rule, active = well fitted inhibition curve with a large enough effect; inconclusive = small, poorly fitted or top-dose-only effect; inactive = flat fitted curve, though single readings scatter. Potencies beside an inconclusive call are fits to weak or partial responses and may not hold up. The source holds several records for some structures; these can differ, active in one and inactive in another. Where a SMILES comes first, the peptide text is derived from it. The star is where a group is joined. Cbz = O=C(OCc1ccccc1)*

By UniProt entry, the sequences of proteins in these tests, tags left out. Where a name states a change or a piece, a line headed by the entry shows the natural chain unless it says otherwise.
UniProt P46063: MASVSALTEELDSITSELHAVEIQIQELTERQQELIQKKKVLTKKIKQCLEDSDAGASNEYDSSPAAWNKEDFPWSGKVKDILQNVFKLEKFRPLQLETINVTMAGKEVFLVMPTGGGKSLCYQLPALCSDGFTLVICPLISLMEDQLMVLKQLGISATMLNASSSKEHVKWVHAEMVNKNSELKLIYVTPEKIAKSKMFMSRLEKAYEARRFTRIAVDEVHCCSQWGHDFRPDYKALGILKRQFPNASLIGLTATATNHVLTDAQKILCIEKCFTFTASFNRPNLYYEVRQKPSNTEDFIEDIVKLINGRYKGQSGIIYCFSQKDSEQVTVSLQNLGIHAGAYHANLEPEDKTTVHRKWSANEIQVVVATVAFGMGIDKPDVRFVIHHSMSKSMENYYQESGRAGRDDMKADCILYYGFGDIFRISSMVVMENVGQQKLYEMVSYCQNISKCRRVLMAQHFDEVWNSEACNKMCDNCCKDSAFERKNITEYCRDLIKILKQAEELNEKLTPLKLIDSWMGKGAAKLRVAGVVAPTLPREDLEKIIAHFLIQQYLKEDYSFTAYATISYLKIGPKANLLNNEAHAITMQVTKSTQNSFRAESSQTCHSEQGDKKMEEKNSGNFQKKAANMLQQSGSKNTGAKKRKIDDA

What follows are compounds tested against ATP-dependent DNA helicase Q1 (Homo sapiens) (UniProt P46063) (assay: qHTS Assay for Inhibitors of RecQ-Like Dna Helicase 1 (RECQ1)). Details: RECQ1 DNA unwinding, red fluorescence kinetic read; series mostly up to 57.3 µM.
Method in brief: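 50 nM RECQ1T1 preincubated 15 min with compound in Tris pH 8.0 buffer with MgCl2, DTT, Tween-20 and 2.5 ug/ml poly(dI-dC); started with 200 nM TAMRA/BHQ-2 forked duplex and 2 mM ATP. Unwinding read as fluorescence (525/598 nm), two reads 2 h apart.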
Also: nearly all actives have a fitted effect of over 30% in size.
Potency is read from the fitted curve at half-maximal effect.

| Structure (SMILES) | Potency | outcome |
| --- | --- | --- |
| CC1(C)CCCN(C(=O)c2coc(=O)c(Br)c2)C1 | active: 11.2 µM |  |
| COc1ccc(CN(C(=O)/C=C/c2ccco2)C2CCS(=O)(=O)C2)cc1 (stereo not given) | inconclusive: 28.2 µM [inhibitor, single point] |  |
| O=C(NCc1ccco1)c1cccc(-c2nnc(-c3ccccc3)o2)c1 | inconclusive: 4.47 µM [inhibitor, single point] |  |
| C#CCn1c(=NC(=O)c2ccc(S(=O)(=O)N3CCc4ccccc4C3)cc2)sc2cc(S(N)(=O)=O)ccc21 | inactive |  |
| Cc1ccc(NC(=O)CN2C(=O)S/C(=C/c3ccc(O)c([N+](=O)[O-])c3)C2=O)cc1C | inconclusive: 28.2 µM [inhibitor, single point] |  |
| Cc1ccc(CNC(=O)c2cc3c(=O)n4ccccc4nc3n(Cc3ccco3)c2=N)cc1 | inconclusive: 28.2 µM [inhibitor, partial curve] |  |
| O=c1c2ccccc2nc(COc2ccccc2)n1/N=C/c1ccc(O)c(O)c1 | active: 28.2 µM |  |
| S=C(NCCc1ccccc1)Nc1cnc2ccccc2c1 | inactive |  |
| Cc1ccccc1-n1nc2c(c1NC(=O)c1c(-c3ccccc3Cl)noc1C)CSC2 | inconclusive: 7.94 µM [inhibitor, full curve] |  |
| CCn1c(CSc2nc3ccccc3s2)nnc1SCC(=O)c1ccc(Cl)cc1 | inactive |  |
| CCOc1ccccc1OCCCCN1CCCC1 | inactive |  |
| Cc1ccc(S(=O)(=O)Nc2cccc3ccc[n+](C)c23)cc1 | inactive |  |
| COC(=O)C1CCCN1C(=O)C1CCCN1C(=O)CNC(=O)OCc1ccccc1 (stereo not drawn) (Cbz-Gly-Pro-Pro-OMe; configuration not given here) | inconclusive: 35.5 µM [inhibitor, partial curve] |  |
| Nc1nnc(CC(=O)N/N=C/c2cc([N+](=O)[O-])cc(Br)c2O)s1 | inconclusive: 28.2 µM [inhibitor, single point] |  |
| CN(C)C=NC(=O)c1cn(-c2ccc(F)cc2)c(=O)c2ccccc12 | inconclusive: 39.8 µM [inhibitor, single point] |  |
| Cc1nc(C)c(C(=O)Nc2ccccc2)s1 | inconclusive: 39.8 µM [inhibitor, single point] |  |
| COC1=C(Nc2ccc(C)cc2)C(=O)c2ccccc2C1=O | inconclusive: 35.5 µM [inhibitor, single point] |  |
| CCNc1nc(NCC)n2c(SCC(=O)Nc3ccccc3)nnc2n1 | inactive |  |
| O=C(CCS(=O)(=O)c1ccc(Br)cc1)Nc1ccc(Br)cc1F | active: 35.5 µM |  |
| O=C1c2sc3nc4n(c(=O)c3c2CCC1Br)CCCCC4 (stereo not given) | inactive |  |
| COCCCNC(=O)C(=O)N/N=C/c1cc2c(cc1Br)OCO2 | inconclusive: 6.31 µM [inhibitor, single point] |  |
| CCOC(=O)c1cnc2sccn2c1=O | inconclusive: 6.31 µM [inhibitor, single point] |  |
| Cc1nn(Cc2c(F)cccc2Cl)c(C)c1NC(=O)C1CC1 | inactive |  |
| O=C(CCc1ccc(O)cc1)c1c(O)cc(O)cc1O | inactive and active: 12.6 µM |  |
| Cc1ccc(C(=O)OCC(=O)NCCN2C(=O)CSC2=O)cc1 | inactive |  |

| Structure (SMILES) | Potency | outcome |
| --- | --- | --- |
| Cc1cccc(OCC(=O)N2CCN(C(=O)Cc3ccccc3)CC2)c1 | inconclusive: 7.08 µM [inhibitor, single point] |  |
| Cc1cc(C(=O)CN2C(=O)NC(C)(c3ccccc3)C2=O)c(C)n1CC1CCCO1 (stereo not given) | inconclusive: 1.12 µM [inhibitor, full curve] |  |
| C/C(=N\Nc1nc2ccccc2[nH]1)c1ccc(C)o1 | inactive |  |
| Cc1cc(C)n(-c2nnc(N3CCN(c4ccc(F)cc4)CC3)nn2)n1 | inconclusive: 1.58 µM [inhibitor, full curve, poor fit] |  |
| Cc1ccc(SCc2nc(-c3ccccn3)no2)cc1 | inconclusive: 0.141 µM [inhibitor, full curve, poor fit] |  |
| Nc1c(C(=O)NCCC2=CCCCC2)sc2ccc(S(=O)(=O)N3CCCCC3)cc12 | inconclusive: 22.4 µM [inhibitor, partial curve] |  |
| CCOC(=O)CNC(=O)CSc1nnc(-c2ccco2)n1N | inactive |  |
| CNC[C@H](O)c1ccc(O)c(O)c1 | active: 17.8 µM |  |
| COc1ccc(-c2nc(SCc3ccccc3)n(S(C)(=O)=O)n2)cc1 | inconclusive: 7.08 µM [inhibitor, single point] |  |
| CCCCOc1ccc(C(=O)Nc2cc(C)c(OCC(=O)N3CCOCC3)c(C)c2)cc1 | inactive |  |
| CC(C)(C)OC(=O)N1CCC(C(=O)N2CCOCC2)CC1 | inconclusive: 0.0562 µM [inhibitor, partial curve, poor fit] |  |
| COC(=O)c1ccccc1NC(=O)C1CC(=O)N(c2ccc(C)cc2)C1 (stereo not given) | inconclusive: 0.126 µM [inhibitor, full curve, poor fit] |  |
| CCN(CC)S(=O)(=O)c1ccc(C(=O)Nc2nnc(NC(=S)Nc3ccccc3)s2)cc1 | inconclusive: 25.1 µM [inhibitor, partial curve, poor fit] |  |
| C(=N\Nc1nc2ccccc2[nH]1)/c1ccccn1 | inactive |  |
| Cc1ccccc1NC(=O)CSc1nnc(-c2ccccc2)n1-c1ccccc1 | inconclusive: 39.8 µM [inhibitor, single point] |  |
| O=C1c2ccc(O)c(O)c2C(=O)c2c(O)ccc(O)c21 | active: 31.6 µM |  |
| NC1=NC[C@H](Cc2ccc(O)cc2)N1CCCCC1CCCCC1 | inconclusive: 6.31 µM [inhibitor, single point] |  |
| Cc1ccc(OCc2ccc(C(=O)NCc3cccnc3)cc2)cc1C | inconclusive: 6.31 µM [inhibitor, single point] |  |
| Cc1cc(C(F)(F)F)nn1Cc1n[nH]c(=S)n1Cc1ccccc1 | inactive |  |
| CCC(O)c1c(-c2ccccc2)nn(C)c1Cl (stereo not given) | inconclusive: 2.51 µM [inhibitor, partial curve] |  |
| CC(=O)OCC1OC(C#Cc2ccccc2Cl)C=CC1OC(C)=O (stereo not given) |  | inactive [at 11.5 µM] |
| Cc1cc(NC(=O)Cc2cccs2)no1 | active: 25.1 µM |  |
| COCCNC(=O)C1(C(F)(F)F)C/C(=C\Cc2ccccc2)CCCO1 (stereo not given) | inactive |  |
| Cc1cc(O)c(/C=N/c2ccccn2)c(=O)o1 | inconclusive: 35.5 µM [inhibitor, single point] |  |
| COc1cccc(/C=N/NC(=O)C(=O)N/N=C/c2cccc(OC)c2O)c1O | inconclusive: 0.282 µM [inhibitor, full curve, poor fit] |  |

| Structure (SMILES) | Potency | outcome |
| --- | --- | --- |
| O=Cc1ccc2oc3nc4n(c(=O)c3c(=O)c2c1)CCCS4 | active: 12.6 µM |  |
| N[C@@](C(=O)O)(c1ccc(P(=O)(O)O)cc1)C1CC1 | inactive |  |
| CC1CN(c2ccccc2)NC1=O (stereo not given) | inactive |  |
| CCCCSCCCNC(=S)Nc1ccccc1C | inconclusive: 3.55 µM [inhibitor, partial curve, poor fit] |  |
| COc1ccccc1/C=C1\SC(=S)N(CC(=O)Nc2nnc(C)s2)C1=O | inconclusive: 39.8 µM [inhibitor, single point] |  |
| O=[N+]([O-])c1cccc(/C=N/NS(=O)(=O)c2ccccc2)c1 | inconclusive: 25.1 µM [inhibitor, partial curve, poor fit] |  |
| CC1(COc2ccc(C[C@H]3SC(=O)NC3=O)cc2)CCCCC1 | inactive |  |
| COc1cc(C)c2c(c1C=O)Oc1c(c(C)c(O)c3c1C(O)OC3=O)OC2=O (stereo not given) | active: 28.2 µM and active: 25.1 µM and active: 14.1 µM |  |
| O=[N+]([O-])c1ccc(-c2nc(=S)c3c(o2)CCCC3)cc1 | inconclusive: 1.41 µM [inhibitor, full curve] |  |
| COc1cc(-c2ccc(Nc3ccccc3C(=O)O)c(OC)c2)ccc1Nc1ccccc1C(=O)O | inconclusive: 39.8 µM [inhibitor, single point] |  |
| Cc1ccc2c(c1)sc(C)[n+]2CCCS(=O)(=O)[O-] | inactive |  |
| O=C1CCCC2=C1C(c1ccc(O)c(O)c1)c1c(ccc3ncccc13)N2 (stereo not given) | active: 11.2 µM |  |
| Cc1ccccc1-n1nnnc1SCc1cc(=O)n2ccsc2n1 | inactive |  |
| O=S(=O)(c1ccc(Br)cc1Cl)N1CCN(CCO)CC1 | inactive |  |
| COc1ccc(OC)c(CCNC(=O)C2CCN(c3nnc(-n4cccc4)s3)CC2)c1 | inconclusive: 22.4 µM [inhibitor, partial curve] |  |
| COc1ccc(NC(=O)CSc2nc(NS(=O)(=O)c3ccccc3)cc(=O)[nH]2)cc1 | active: 14.1 µM |  |
| CN(Cc1ccco1)c1nc(-c2ccc3c(c2)OCO3)nc2ccccc12 | inconclusive: 25.1 µM [inhibitor, single point] |  |
| O=[N+]([O-])c1ccc(Sc2ccc(Cl)c(Cl)c2)nc1 | inconclusive: 7.08 µM [inhibitor, single point] |  |
| CCOC(=O)c1cc2c(ccn2C)n1Cc1ccccc1C | active: 28.2 µM |  |
| O=c1cc(NCCO)c2ccccc2o1 | inconclusive: 39.8 µM [inhibitor, partial curve] |  |
| CCCC(=O)NNC(=O)Nc1ccccc1 | inconclusive: 8.91 µM [inhibitor, partial curve] |  |
| O=C(NCc1nc2ccccc2[nH]1)C1=C[C@H](C2CC2)C[C@H](OCCCCO)O1 | inconclusive: 0.794 µM [inhibitor, single point] |  |
| Cc1cccc(N(C)c2cc(C)nc3ncnn23)c1 | inactive |  |
| COc1ccc2c(c1)Cc1sc(NC(=O)c3cccs3)nc1-2 | inconclusive: 39.8 µM [inhibitor, single point] |  |
| C=C(C)C(=O)Nc1cccc(C2=NOC3(C2)C[C@@H](C(N)=O)N(C(=O)CCCCC)C3)c1 (stereo not given in full) | active: 25.1 µM |  |
